Earlier results in patent US20130034497A1, “IODINE-LABELED HOMOGLUTAMIC ACID AND GLUTAMIC ACID DERIVATIVES” (PIRAMAL IMAGING SA, priority 2009, published 2013).

Details: oncology overall; cited from earlier work

SMILES: OC[C@H]1OC(O)[C@H]([18F])[C@@H](O)[C@@H]1O (some centres unmarked) [FDG, 2-[^18 F]-fluoro-deoxyglucose]
- sensitivity of diagnosis: 84%
- specificity of diagnosis: 88%
